Data taken from PubChem BioAssay AID1487 (National Center for Advancing Translational Sciences (NCATS), 2009).
The list shows a part of the results. Shown are side measurements of this screen, not its main read-out; they come without a call. Compounds called inactive in the main read-out are mostly missing here. Potencies come from curve fits of mixed quality, noted in brackets.

Experiment: qHTS Assay for Modulators of Lamin A Splicing
Details: HeLa LMNA splicing GFP/RFP minigene ratio, 48 h
How it was run: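 Read-out is the ratio of GFP to DsRed2 object intensity, acquired by 488 nm laser-scanning cytometry on HeLa lamin A-EGFP minigene reporter cells. Compound incubation 48 hrs at 37 °C in Opti-MEM with 2% FBS; DMSO 0.5% final.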

[1] = measured here: RFP viability control channel
[2] = measured here: GFP splicing reporter channel

SMILES | AC50 [1] | AC50 [2]
COc1ccc(C(=O)Nc2ncc3c(n2)CC(c2ccco2)CC3=O)cc1 (stereo not given) | 0.2 µM [falling, full curve, poor fit] | –
CC(C)c1ccc(NC(=O)c2cc(S(=O)(=O)NCCC3=CCCCC3)ccc2F)cc1 | 35.5 µM [falling, partial curve, poor fit] | 31.6 µM [falling, partial curve, poor fit]
COc1ccc(NC(=O)Cc2ccc(NC(=O)N3CCCCc4ccccc43)cc2)c(OC)c1 | 0.141 µM [falling, full curve, poor fit] | 7.94 µM [falling, partial curve, poor fit]
CCCCCCn1c(N2CCN(c3ccccc3)CC2)nc2c1c(=O)n(C)c(=O)n2C | 14.1 µM [rising, single point] | –
O=C(Cc1cccs1)N1CCN(c2nc(-c3ccc(Cl)cc3)cs2)CC1 | 25.1 µM [rising, single point] | –
COc1ccc(CNC(=O)CN(C)S(=O)(=O)c2ccc3[nH]c4c(c3c2)CCCC4)cc1 | 0.0398 µM [falling, full curve] | 0.0631 µM [falling, full curve]
CCOC(=O)C1CCC(CN(Cc2ccc(OC)cc2)S(=O)(=O)c2ccc(F)c(C(=O)Nc3cc(Cl)ccc3OC)c2)CC1 (stereo not given) | 0.355 µM [falling, partial curve, poor fit] | –
CC[C@H](C)[C@@H]1O[C@]2(CC[C@@H]1C)C[C@H]1C[C@H](CC=C(C)[C@@H](O[C@@H]3C[C@H](OC)[C@H](O[C@@H]4C[C@H](OC)[C@H](O)[C@H](C)O4)[C@H](C)O3)[C@@H](C)C=CC=C3CO[C@@H]4[C@@H](O)C(C)=C[C@@H](C(=O)O1)[C@]34O)O2 | 0.398 µM [falling, partial curve, poor fit] | 0.355 µM [falling, partial curve]
CCC(C)c1ccccc1NC(=O)COC(=O)c1ccc2[nH]c3c(c2c1)CCCC3 (stereo not given) | 14.1 µM [rising, single point] | –
Cn1c(=O)c2c(-c3ccccc3)n(-c3ccccc3O)cc2n(C)c1=O | 4.47 µM [falling, full curve, poor fit] | –
Cc1cn2c(=O)cc(COC(=O)c3ccc(NC(=O)c4ccc(C(C)(C)C)cc4)cc3)nc2s1 | 0.00708 µM [rising, full curve, poor fit] | –
COc1ccc(C2=Nc3ccccc3N(CC(=O)Nc3cccc(C(C)=O)c3)C(=O)C2)cc1 | 11.2 µM [falling, partial curve] | 11.2 µM [falling, partial curve]
COc1ccc(/C(O)=C/c2nc3ccc(C(=O)NCCc4cccc(C)c4)cc3[nH]c2=O)cc1OC | 35.5 µM [falling, single point] | 35.5 µM [falling, single point]
COc1ccc2c(c1)O[C@H](c1ccc3c(c1)OCO3)[C@@H](OC(=O)N[C@H](C)C1CCCCC1)C2=O | 12.6 µM [rising, partial curve, poor fit] | –
COc1ccc(OCCCn2c(C)nc3cc(C)c(C)cc32)cc1 | 15.8 µM [falling, partial curve] | 11.2 µM [falling, partial curve]
CCOC(=O)c1sc(NC(=O)Nc2ccc(Cl)cc2)cc1C | 11.2 µM [rising, partial curve] | –
N#CC1=C(SCC(=O)Nc2nccs2)NC(=O)CC1c1ccccc1 (stereo not given) | 35.5 µM [rising, single point] | –
CCOc1ccccc1OCCCCCc1c(C)n[nH]c1C | 11.2 µM [rising, partial curve] | 2 µM [rising, partial curve]
COCCn1nnnc1CN(CCCN1CCOCC1)Cc1cc2c(C)ccc(C)c2[nH]c1=O | 35.5 µM [rising, single point] | –
Cc1nc2c(cc(Oc3ccc(S(=O)(=O)N4CCOCC4)cn3)c3ccsc32)s1 | 15.8 µM [rising, single point] | 11.2 µM [rising, single point]
CCOC(=O)c1cc(-c2ccc(OC)cc2)n(CCC(=O)NCCc2ccc(OCC)c(OCC)c2)c1C | – | 5.62 µM [rising, single point]
COC(=O)c1ccc(/C=C/C(=O)c2ccc(OC)cc2)cc1 | 25.1 µM [falling, partial curve] | 28.2 µM [falling, single point]
Cc1ccc(C)n1-c1ccc(-n2cnnn2)cc1 | 7.08 µM [falling, partial curve] | –
O=c1[nH]c(=O)c2nc3ccccc3nc2[nH]1 | 0.000891 µM [falling, full curve, poor fit] | 0.000794 µM [falling, full curve, poor fit]
CCCc1[nH]n(-c2nc3ccccc3s2)c(=O)c1C=NCC(C)C | 35.5 µM [rising, single point] | –
Cc1ccc(C2C(=O)N(C3CCCCCC3)CC(=O)N2CCC2=CCCCC2)cc1 (stereo not given) | – | 0.00355 µM [falling, full curve, poor fit]

Entries from the list above with fluorine:
SMILES | AC50 [1] | AC50 [2]
CC(C)c1ccc(NC(=O)c2cc(S(=O)(=O)NCCC3=CCCCC3)ccc2F)cc1 | 35.5 µM [falling, partial curve, poor fit] | 31.6 µM [falling, partial curve, poor fit]
CCOC(=O)C1CCC(CN(Cc2ccc(OC)cc2)S(=O)(=O)c2ccc(F)c(C(=O)Nc3cc(Cl)ccc3OC)c2)CC1 (stereo not given) | 0.355 µM [falling, partial curve, poor fit] | –

Next structures

SMILES | AC50 [1] | AC50 [2]
O=c1cc(-c2ccccc2)[nH]c2nc(Cl)ccc12 | 2.82 µM [falling, full curve] | 2.51 µM [falling, full curve]
COc1cc([N+](=O)[O-])ccc1NC(=O)N1CCC2(CC1)Nc1cc(F)ccc1-n1cccc12 | 3.16 µM [rising, full curve] | 1.58 µM [rising, full curve]
N#CC1(C#N)CC(C=O)=C(N)C1(C#N)CC(=O)C12CC3CC(CC(C3)C1)C2 (stereo not given) | 22.4 µM [rising, single point] | –
Fc1cccc2sc(Nc3nnc(-c4ccccc4)o3)nc12 | 7.08 µM [rising, full curve] | –
Cc1ccc(OC(F)F)c(NC(=O)Nc2cccc(C(F)(F)F)c2)c1 | 12.6 µM [rising, partial curve] | 15.8 µM [rising, single point]
CCc1ccccc1-n1cnc2cc(C(=O)O)ccc21 | 0.141 µM [falling, partial curve, poor fit] | –
N#C/C(=C\c1ccc(O)c(O)c1)C(=O)NCCc1ccccc1 | 0.000794 µM [falling, full curve, poor fit] | 11.2 µM [falling, partial curve, poor fit]
COc1ccc(C(=O)c2ccc(N(C)C)cc2)c2ccccc12 | 1.78 µM [rising, partial curve] | –
CCOC(=O)Cc1csc(NC(=S)NC(=O)c2ccc(F)cc2)n1 | 14.1 µM [falling, partial curve] | –
CCCC(C(=O)Nc1cc(C)c(Cl)cc1OC)N1Cc2ccccc2C1=O (stereo not given) | 35.5 µM [rising, single point] | 35.5 µM [rising, single point]
COc1ccc(/C=C2\CCCC3C2=NN(C(=O)CSc2ncn[nH]2)C3c2ccc(OC)cc2)cc1 (stereo not given) | – | 28.2 µM [falling, single point]
Cc1ccc(OCC(O)CN2CCN(c3ccccn3)CC2)c(C)c1 (stereo not given) | 17.8 µM [falling, partial curve, poor fit] | 0.562 µM [falling, partial curve, poor fit]
Cc1cc(C)cc(C(=O)N2CCN=C2SCc2ccc([N+](=O)[O-])cc2)c1 | 22.4 µM [falling, single point] | –
Cc1ccc(CCNC(=O)c2ccc(CNS(=O)(=O)c3ccc(F)cc3)cc2)cc1 | – | 0.282 µM [rising, full curve, poor fit]
S=C(Nc1ccccc1Cl)N1CCOCC1 | – | 0.0891 µM [falling, full curve, poor fit]
Nc1c(C(=O)Nc2ccccc2F)sc2nc(Cc3ccccc3)cc(C(F)(F)F)c12 | 3.98 µM [falling, full curve] | –
Cc1c(C(=O)Nc2ccccc2Cl)oc2ccc(S(=O)(=O)N3CCCCCC3)cc12 | – | 35.5 µM [rising, single point]
O=C(COc1ccc([N+](=O)[O-])cc1)N/N=C/c1cc([N+](=O)[O-])ccc1N1CCOCC1 | 0.0794 µM [rising, full curve, poor fit] | –
CC(C)c1ccc(N(CC(=O)NCC2CCCO2)C(=O)Cn2nnc(-c3cccs3)n2)cc1 (stereo not given) | – | 28.2 µM [falling, single point]
O=C1N=C(N2CCOCC2)S/C1=C\c1ccc(-c2ccccc2Cl)o1 | 2.24 µM [rising, full curve, poor fit] | –
CC(Sc1ncnc2ccccc12)C(=O)Nc1ccc2c(c1)OCCO2 (stereo not given) | 12.6 µM [rising, partial curve, poor fit] | –
CCOc1ccc(NC(=S)NCc2ccc3[nH]c(C)cc3c2)cc1 | – | 0.355 µM [rising, partial curve]
CC(=O)Nc1nc(C)c(-c2csc(Nc3cccc([N+](=O)[O-])c3)n2)s1 | 35.5 µM [falling, single point] | 25.1 µM [falling, single point]
CCN(CC)C1=N/C(=C\c2ccc(OC)cc2)C(=O)N1c1ccccc1 | 14.1 µM [rising, partial curve] | 11.2 µM [rising, partial curve, poor fit]
Cc1cccc(N2CCN(C(=O)c3c4c(nc5ccccc35)C(=O)N(C3CCCCC3)C4)CC2)c1C | 0.398 µM [rising, full curve, poor fit] | –
